“Also recorded” adds a separate entry of the source. At least one structure is not confirmed: it was looked up by name or label, or the drawing left a doubt.
System: neuronal cells
Assay: Neuro-protective activity, MTT assay, glutamate-induced death
Type: cell-based
Conditions: pre-treatment before glutamate, FIG. 3

C[C@H]1C[C@H]2[C@@H]3CCC4=CC(=O)C=C[C@]4(C)[C@@]3(F)[C@@H](O)C[C@]2(C)[C@@]1(O)C(=O)CO [betamethasone, reference compound]
neuro-protective activity on the death of neuronal cells caused by glutamate: does not exert any neuro-protective effect; also recorded: does not improve the result

From patent US20200199170A1, “COMPOUNDS HAVING ANTI-INFLAMMATORY AND ANTI-OXIDANT ACTIVITY” (UNIVERSITÀ DEGLI STUDI DI FERRARA, priority 2015, published 2020)
